No constants are given. Whether binding was seen depends on the method and setting. Binding seen in cells or lysates may run through a third protein. Some entries that bind do so weakly or less than the wild type. For some assays here: Where a sequence is shown, tags or fusion partners need not be part of it. One block for each molecule: values may come before it.
Key:
[1] = target: cyclin D1 (endogenous) (human (endogenous in HCT 116 and T98G)) (UniProt P24385); experiment: co-IP; lysate of exponentially growing HCT 116 cells precipitated with antibodies to cyclin D1 or IgG; blotted for cyclin D1, CDK4, SKP1, CUL1 and CUL7
[2] = target: T1, Flag-tagged WT FBXW8 (human) (UniProt Q8N3Y1); experiment: co-IP; T98G cells transfected with empty, Flag-tagged WT FBXW8 or ΔF FBXW8 plasmid; precipitated with Flag antibody; blotted for cyclin D1, SKP1, CUL1, CUL7, RBX1 and Flag
T1 sequence: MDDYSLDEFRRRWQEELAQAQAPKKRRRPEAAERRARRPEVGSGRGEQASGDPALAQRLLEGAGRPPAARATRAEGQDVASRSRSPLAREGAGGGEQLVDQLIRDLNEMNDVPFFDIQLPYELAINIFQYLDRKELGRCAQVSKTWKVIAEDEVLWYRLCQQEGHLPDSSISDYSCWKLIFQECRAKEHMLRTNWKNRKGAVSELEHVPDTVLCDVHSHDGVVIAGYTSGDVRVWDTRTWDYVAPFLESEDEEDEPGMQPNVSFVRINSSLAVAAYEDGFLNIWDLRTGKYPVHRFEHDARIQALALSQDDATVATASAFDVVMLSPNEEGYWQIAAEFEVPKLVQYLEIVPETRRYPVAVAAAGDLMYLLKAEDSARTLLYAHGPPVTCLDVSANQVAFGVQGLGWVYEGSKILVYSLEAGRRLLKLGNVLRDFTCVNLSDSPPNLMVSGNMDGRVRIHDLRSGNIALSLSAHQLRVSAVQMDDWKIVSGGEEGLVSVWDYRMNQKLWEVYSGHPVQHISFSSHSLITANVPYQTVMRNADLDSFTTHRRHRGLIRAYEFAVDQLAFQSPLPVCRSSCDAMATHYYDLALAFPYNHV

Chains of the proteins cited; added tags and fusions are not shown. Lines headed by an entry give the natural chain unless they say otherwise; changes in a name come on top. A line that says so, or that is headed by a name, gives the form on record, which may keep a tag or linker.
UniProt P24385: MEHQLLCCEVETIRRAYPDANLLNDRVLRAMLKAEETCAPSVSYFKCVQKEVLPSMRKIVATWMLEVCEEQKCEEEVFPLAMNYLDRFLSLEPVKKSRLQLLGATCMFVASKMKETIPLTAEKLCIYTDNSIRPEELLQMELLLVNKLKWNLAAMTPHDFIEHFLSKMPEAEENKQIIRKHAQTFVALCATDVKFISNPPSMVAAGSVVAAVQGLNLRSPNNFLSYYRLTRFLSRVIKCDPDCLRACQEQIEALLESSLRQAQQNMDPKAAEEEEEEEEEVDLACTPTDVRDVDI
HA-tagged ΔD cyclin D1 (complete deletion of the D-domain) (P24385, form named): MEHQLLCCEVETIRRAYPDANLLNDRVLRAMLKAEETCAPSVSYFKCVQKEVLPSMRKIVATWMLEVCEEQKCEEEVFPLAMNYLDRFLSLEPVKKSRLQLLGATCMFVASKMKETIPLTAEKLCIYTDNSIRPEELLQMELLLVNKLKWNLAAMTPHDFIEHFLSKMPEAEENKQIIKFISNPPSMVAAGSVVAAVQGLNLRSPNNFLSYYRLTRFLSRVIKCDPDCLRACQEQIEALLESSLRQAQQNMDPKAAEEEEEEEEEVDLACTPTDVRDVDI
UniProt Q14999: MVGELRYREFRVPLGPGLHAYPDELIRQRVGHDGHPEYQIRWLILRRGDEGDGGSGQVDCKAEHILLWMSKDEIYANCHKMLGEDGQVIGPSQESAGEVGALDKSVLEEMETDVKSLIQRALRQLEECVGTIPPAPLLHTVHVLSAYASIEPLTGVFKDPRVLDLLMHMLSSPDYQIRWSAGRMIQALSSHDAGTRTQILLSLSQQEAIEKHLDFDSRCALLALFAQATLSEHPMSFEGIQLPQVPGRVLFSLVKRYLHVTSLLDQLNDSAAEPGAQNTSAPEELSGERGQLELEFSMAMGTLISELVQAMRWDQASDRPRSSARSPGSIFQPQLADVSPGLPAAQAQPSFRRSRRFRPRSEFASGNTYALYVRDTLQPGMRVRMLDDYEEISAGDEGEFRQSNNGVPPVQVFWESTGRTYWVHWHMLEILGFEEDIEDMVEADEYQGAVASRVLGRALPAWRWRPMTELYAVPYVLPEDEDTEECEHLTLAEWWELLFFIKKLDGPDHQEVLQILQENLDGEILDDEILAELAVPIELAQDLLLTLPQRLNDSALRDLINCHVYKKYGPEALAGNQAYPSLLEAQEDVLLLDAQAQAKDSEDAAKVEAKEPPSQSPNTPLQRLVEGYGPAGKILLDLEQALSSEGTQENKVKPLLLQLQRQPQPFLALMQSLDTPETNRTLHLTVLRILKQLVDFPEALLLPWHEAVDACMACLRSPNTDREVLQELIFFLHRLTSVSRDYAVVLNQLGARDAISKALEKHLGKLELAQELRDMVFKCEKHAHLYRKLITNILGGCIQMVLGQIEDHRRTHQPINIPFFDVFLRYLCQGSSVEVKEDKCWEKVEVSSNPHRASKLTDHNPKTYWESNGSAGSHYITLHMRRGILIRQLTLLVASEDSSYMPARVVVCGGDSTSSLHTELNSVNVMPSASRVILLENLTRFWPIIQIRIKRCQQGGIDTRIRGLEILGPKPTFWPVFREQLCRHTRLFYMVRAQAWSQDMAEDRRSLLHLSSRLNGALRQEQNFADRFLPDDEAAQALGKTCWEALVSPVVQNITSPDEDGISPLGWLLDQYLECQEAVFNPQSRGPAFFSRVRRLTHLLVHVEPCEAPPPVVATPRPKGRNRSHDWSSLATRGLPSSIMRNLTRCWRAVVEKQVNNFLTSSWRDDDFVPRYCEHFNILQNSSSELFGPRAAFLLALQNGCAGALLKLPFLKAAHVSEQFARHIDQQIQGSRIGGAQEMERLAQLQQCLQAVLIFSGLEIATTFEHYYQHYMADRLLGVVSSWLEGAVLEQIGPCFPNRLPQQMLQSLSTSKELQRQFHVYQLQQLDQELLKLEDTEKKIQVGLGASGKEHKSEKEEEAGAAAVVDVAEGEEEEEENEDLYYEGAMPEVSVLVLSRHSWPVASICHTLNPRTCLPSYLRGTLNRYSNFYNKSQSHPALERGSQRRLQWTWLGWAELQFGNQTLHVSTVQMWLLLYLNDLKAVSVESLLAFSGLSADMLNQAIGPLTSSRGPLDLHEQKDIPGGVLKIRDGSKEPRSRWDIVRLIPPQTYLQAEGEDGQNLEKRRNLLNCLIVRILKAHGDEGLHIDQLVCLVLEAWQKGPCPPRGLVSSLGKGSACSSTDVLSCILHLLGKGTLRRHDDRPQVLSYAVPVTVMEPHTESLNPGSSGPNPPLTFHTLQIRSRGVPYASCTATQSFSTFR
UniProt P63208: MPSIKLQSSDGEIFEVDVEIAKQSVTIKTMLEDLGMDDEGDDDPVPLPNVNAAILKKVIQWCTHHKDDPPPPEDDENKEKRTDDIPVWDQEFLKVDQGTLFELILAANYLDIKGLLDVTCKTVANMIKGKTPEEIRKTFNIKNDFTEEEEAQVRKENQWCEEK
UniProt P28482: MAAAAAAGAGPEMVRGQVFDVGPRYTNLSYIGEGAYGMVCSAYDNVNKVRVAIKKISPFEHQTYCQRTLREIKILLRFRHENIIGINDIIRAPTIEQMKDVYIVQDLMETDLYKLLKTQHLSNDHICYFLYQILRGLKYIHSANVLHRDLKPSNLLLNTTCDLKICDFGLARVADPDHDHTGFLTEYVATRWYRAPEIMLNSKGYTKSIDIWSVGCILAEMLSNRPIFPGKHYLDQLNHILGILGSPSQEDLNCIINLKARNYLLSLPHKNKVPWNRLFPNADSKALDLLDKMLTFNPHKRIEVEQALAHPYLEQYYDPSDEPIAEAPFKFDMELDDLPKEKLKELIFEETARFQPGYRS

[3] = target: HA-tagged wild type cyclin D1 (human) (UniProt P24385); experiment: co-IP; IP-IB after ectopic expression of Flag-tagged ERK2 with HA-tagged WT or ΔD cyclin D1 in HCT 116 cells; which tag was precipitated is not told
[4] = target: HA-tagged ΔD cyclin D1 (complete deletion of the D-domain) (human) (UniProt P24385); experiment: as above
[5] = target: HA-tagged cyclin D1 T286A mutant (human) (UniProt P24385); experiment: co-IP; T98G cells transfected with V5- or Flag-tagged F-box proteins, HA-tagged cyclin D1 (WT or T286A) and CDK4; collected after 24 hrs; precipitated with HA antibody; blotted with V5 or Flag
[6] = target: HA-tagged wild type cyclin D1 (human) (UniProt P24385); experiment: as above

binding [1]: binds
binding [2]: binds
Molecule: Cullin 7 (CUL7), endogenous (from UniProt Q14999 1-1698)

binding [1]: binds
binding [2]: binds
Molecule: S-phase Kinase-associated Protein 1 (SKP1), endogenous (from UniProt P63208 1-163)

binding [3]: binds
binding [4]: binds weakly
Molecule: Flag-tagged ERK2 (from UniProt P28482 1-360) (enzyme)

binding [5]: binds
binding [6]: binds
B1: V5-tagged FBXL12 (protein, UniProt Q9NXK8 1-326)
chain: MATLVELPDSVLLEIFSYLPVRDRIRISRVCHRWKRLVDDRWLWRHVDLTLYTMRPKVMWHLLRRYMASRLHSLRMGGYLFSGSQAPQLSPALLRALGQKCPNLKRLCLHVADLSMVPITSLPSTLRTLELHSCEISMAWLHKQQDPTVLPLLECIVLDRVPAFRDEHLQGLTRFRALRSLVLGGTYRVTETGLDAGLQELSYLQRLEVLGCTLSADSTLLAISRHLRDVRKIRLTVRGLSAPGLAVLEGMPALESLCLQGPLVTPEMPSPTEILSSCLTMPKLRVLELQGLGWEGQEAEKILCKGLPHCMVIVRACPKESMDWWM

Source: PMC1762433
